This note sets out measurements from paper PMC11210309 (Science Advances, 2021).

The structures appear in SMILES notation. Some results are limits rather than exact numbers.

Data set [1] in a line: Apical-to-basolateral permeability. The following applies: human.
The nature of data set [2]: Apical-to-basolateral permeability. Conditions: human, Caco-2. Background: Caco-2 cells form a polarised layer with tight junctions and transporters.

By Papp A→B is commonly meant the apparent permeability from the apical to the basolateral side of a cell layer. Higher therefore signals fast passage. Take `NS(=O)(=O)c1cc(C(=O)O)c(NCc2ccco2)cc1Cl` [furosemide]: the Papp A→B at 2 h is 8.04 ± 0.91 ×10⁻⁶ cm/s in data set [1] and < 0.3 ×10⁻⁶ cm/s in data set [2].
